Assay [1] addresses Specificity Protein 1 (Sp1) (human (endogenous in U937)) (UniProt P08047). The assay is described as follows: native gel or EMSA; super-shift EMSA: radio labeled hres Sp1 oligonucleotide (-276 to -295), 7.5 µg U937 nuclear extract (unstimulated; Sp1-Sp3 also with PMA stimulated extract), 2 µg of antibody to each factor; Sp1 binding buffer (10 mM Tris-Cl pH 7.5, 75 mM KCl, 0.1 mM EDTA, 2.5 mM MgCl2, 0.25 mM DTT, 10% glycerol), on ice. On the technique in general: A gel shift assay detects complexes by their altered migration in electrophoresis.

By UniProt entry, the sequences of proteins in these tests, tags left out.
UniProt P08047: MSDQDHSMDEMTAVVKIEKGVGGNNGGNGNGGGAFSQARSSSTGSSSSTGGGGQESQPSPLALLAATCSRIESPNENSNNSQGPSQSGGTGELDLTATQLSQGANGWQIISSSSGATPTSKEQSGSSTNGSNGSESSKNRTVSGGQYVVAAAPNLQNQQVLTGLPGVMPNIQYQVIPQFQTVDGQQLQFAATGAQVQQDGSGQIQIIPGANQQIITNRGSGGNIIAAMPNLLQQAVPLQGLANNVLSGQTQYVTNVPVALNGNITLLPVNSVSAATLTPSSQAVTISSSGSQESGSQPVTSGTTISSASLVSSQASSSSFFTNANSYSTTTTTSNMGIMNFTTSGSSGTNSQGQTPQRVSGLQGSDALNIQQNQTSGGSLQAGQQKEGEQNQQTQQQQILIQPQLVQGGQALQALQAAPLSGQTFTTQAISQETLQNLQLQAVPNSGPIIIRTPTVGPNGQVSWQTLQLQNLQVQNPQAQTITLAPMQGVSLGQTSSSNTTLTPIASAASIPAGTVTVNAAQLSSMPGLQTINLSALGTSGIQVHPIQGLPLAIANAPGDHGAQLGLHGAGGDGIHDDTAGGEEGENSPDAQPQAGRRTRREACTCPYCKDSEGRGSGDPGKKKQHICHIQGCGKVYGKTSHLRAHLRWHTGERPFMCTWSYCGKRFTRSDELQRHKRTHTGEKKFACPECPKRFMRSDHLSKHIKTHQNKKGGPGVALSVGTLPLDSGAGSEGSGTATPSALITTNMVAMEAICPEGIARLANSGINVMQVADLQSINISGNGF

Assay [2] concerns the target Specificity Protein 1 (Sp1) (human (endogenous in U937)), P08047. Described as above. The conditions noted are these: remark: other sources report otherwise.

This note sets out measurements from PMC2848011.

Results are given in words; binding and its absence hold for the method and conditions named.

B1: c-Rel (protein, UniProt Q04864 1-619)
chain: MASGAYNPYIEIIEQPRQRGMRFRYKCEGRSAGSIPGEHSTDNNRTYPSIQIMNYYGKGKVRITLVTKNDPYKPHPHDLVGKDCRDGYYEAEFGQERRPLFFQNLGIRCVKKKEVKEAIITRIKAGINPFNVPEKQLNDIEDCDLNVVRLCFQVFLPDEHGNLTTALPPVVSNPIYDNRAPNTAELRICRVNKNCGSVRGGDEIFLLCDKVQKDDIEVRFVLNDWEAKGIFSQADVHRQVAIVFKTPPYCKAITEPVTVKMQLRRPSDQEVSESMDFRYLPDEKDTYGNKAKKQKTTLLFQKLCQDHVETGFRHVDQDGLELLTSGDPPTLASQSAGITVNFPERPRPGLLGSIGEGRYFKKEPNLFSHDAVVREMPTGVSSQAESYYPSPGPISSGLSHHASMAPLPSSSWSSVAHPTPRSGNTNPLSSFSTRTLPSNSQGIPPFLRIPVGNDLNASNACIYNNADDIVGMEASSMPSADLYGISDPNMLSNCSVNMMTTSSDSMGETDNPRLLSMNLENPSCNSVLDPRDLRQLHQMSSSSMSAGANSNTTVFVSQSDAFEGSDFSCADNSMINESGPSNSTNPNSHGFVQDSQYSGIGSMQNEQLSDSFPYEFFQV
With B1, the binding result in assay [1] is listed as “no binding”.

B2: c-Jun, P05412 1-331 (protein)
chain: MTAKMETTFYDDALNASFLPSESGPYGYSNPKILKQSMTLNLADPVGSLKPHLRAKNSDLLTSPDVGLLKLASPELERLIIQSSNGHITTTPTPTQFLCPKNVTDEQEGFAEGFVRALAELHSQNTLPSVTSAAQPVNGAGMVAPAVASVAGGSGSGGFSASLHSEPPVYANLSNFNPGALSSGGGAPSYGAAGLAFPAQPQQQQQPPHHLPQQMPVQHPRLQALKEEPQTVPEMPGETPPLSPIDMESQERIKAERKRMRNRIAASKCRKRKLERIARLEEKVKTLKAQNSELASTANMLREQVAQLKQKVMNHVNSGCQLMLTQQLQTF
As for B2, in assay [2], the binding entry is on record as “no binding”.

B3: activating transcription factor 2 (ATF-2) (protein, UniProt P15336 1-505)
chain: MKFKLHVNSARQYKDLWNMSDDKPFLCTAPGCGQRFTNEDHLAVHKHKHEMTLKFGPARNDSVIVADQTPTPTRFLKNCEEVGLFNELASPFENEFKKASEDDIKKMPLDLSPLATPIIRSKIEEPSVVETTHQDSPLPHPESTTSDEKEVPLAQTAQPTSAIVRPASLQVPNVLLTSSDSSVIIQQAVPSPTSSTVITQAPSSNRPIVPVPGPFPLLLHLPNGQTMPVAIPASITSSNVHVPAAVPLVRPVTMVPSVPGIPGPSSPQPVQSEAKMRLKAALTQQHPPVTNGDTVKGHGSGLVRTQSEESRPQSLQQPATSTTETPASPAHTTPQTQSTSGRRRRAANEDPDEKRRKFLERNRAAASRCRQKRKVWVQSLEKKAEDLSSLNGQLQSEVTLLRNEVAQLKQLLLAHKDCPVTAMQKKSGYHTADKDDSSEDISVPSSPHTEAIQHSSVSTSNGVSSTSKAEAVATSVLTQMADQSTEPALSQIVMAPSSQSQPSGS
Take B3: the binding result in assay [1] is listed as “no binding”.
